Test [1] has as its target human plasma fibronectin (human) (UniProt P02751). Put plainly: solid phase and pepspot assays (discussion).
For test [2] the target is unchanged. Put plainly: solid phase binding assay, biotinylated CBD 5 µg/ml; inhibited by PPC.
The target in test [3] is T1, αVβ5 integrin of HT1080 cells (human) (UniProt P06756+P18084). The test can be described thus: co-immunoprecipitation from HT1080 cells (discussion).
Test [4] has as its target T1, αVβ5 integrin of HT1080 cells (human). The test can be described thus: co-immunoprecipitation with anti-integrin cytoplasmic domain antisera, western blot.

By UniProt entry, the sequences of proteins in these tests, tags left out. Where a name states a change or a piece, a line headed by the entry shows the natural chain unless it says otherwise. Chains listed by the source or under a name are the forms on record and can include a tag or linker.
human plasma fibronectin (P02751, form named): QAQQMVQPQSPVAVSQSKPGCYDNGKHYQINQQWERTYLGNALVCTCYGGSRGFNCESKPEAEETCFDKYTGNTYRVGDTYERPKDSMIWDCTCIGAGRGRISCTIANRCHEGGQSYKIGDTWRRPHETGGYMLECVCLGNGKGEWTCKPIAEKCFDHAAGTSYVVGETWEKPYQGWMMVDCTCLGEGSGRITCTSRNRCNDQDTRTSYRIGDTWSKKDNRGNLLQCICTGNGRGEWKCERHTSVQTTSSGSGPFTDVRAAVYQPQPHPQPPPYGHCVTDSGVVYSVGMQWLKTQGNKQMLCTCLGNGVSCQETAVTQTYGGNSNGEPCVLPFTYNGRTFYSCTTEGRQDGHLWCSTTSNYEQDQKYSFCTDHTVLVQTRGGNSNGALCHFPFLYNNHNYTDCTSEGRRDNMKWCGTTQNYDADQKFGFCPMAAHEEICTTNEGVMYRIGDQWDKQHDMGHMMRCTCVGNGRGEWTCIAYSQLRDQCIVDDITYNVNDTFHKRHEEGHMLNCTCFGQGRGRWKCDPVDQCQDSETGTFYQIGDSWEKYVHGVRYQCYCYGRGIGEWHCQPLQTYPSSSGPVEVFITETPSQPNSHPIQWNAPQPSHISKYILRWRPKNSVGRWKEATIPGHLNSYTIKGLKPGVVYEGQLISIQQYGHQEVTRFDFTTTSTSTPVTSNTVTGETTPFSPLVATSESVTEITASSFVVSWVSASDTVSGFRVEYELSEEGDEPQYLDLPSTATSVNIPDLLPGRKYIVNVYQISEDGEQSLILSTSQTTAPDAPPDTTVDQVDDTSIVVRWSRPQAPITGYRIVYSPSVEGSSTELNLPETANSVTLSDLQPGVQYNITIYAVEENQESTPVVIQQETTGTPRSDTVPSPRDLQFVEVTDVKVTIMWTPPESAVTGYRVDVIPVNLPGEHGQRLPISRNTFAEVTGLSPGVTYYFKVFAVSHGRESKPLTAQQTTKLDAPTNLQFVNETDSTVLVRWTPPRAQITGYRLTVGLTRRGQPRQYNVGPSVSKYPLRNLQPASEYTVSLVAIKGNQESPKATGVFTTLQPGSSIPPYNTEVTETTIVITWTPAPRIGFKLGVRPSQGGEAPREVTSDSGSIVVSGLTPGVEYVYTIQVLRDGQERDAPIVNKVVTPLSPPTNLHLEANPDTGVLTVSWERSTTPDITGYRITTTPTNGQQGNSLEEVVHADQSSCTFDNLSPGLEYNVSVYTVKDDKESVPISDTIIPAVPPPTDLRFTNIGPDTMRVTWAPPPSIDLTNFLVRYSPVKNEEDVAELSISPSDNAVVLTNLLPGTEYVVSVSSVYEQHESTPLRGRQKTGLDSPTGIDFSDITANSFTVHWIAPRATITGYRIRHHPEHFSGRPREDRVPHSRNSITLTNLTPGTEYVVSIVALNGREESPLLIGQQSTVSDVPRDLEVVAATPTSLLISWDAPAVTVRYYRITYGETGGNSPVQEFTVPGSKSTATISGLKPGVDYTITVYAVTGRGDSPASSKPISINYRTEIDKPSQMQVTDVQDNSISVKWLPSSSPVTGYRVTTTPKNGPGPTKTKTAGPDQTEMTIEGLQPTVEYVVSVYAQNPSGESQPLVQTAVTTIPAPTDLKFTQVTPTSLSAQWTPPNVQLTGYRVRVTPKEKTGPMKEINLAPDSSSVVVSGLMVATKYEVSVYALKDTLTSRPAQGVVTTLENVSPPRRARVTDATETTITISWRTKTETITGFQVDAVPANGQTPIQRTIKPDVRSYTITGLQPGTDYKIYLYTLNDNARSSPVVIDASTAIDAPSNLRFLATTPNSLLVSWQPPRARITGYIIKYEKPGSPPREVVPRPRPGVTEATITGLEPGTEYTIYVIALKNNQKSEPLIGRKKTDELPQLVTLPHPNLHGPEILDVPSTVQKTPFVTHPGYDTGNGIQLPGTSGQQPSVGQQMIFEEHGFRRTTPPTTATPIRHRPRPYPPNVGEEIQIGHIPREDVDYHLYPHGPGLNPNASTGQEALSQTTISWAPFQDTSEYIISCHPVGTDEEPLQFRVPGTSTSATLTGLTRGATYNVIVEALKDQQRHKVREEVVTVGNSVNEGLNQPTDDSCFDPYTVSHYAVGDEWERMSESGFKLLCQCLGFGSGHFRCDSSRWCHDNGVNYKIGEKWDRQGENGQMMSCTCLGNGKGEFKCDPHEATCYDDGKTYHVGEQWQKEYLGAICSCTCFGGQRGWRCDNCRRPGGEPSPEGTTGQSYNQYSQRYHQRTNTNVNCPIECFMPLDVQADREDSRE
UniProt P06756: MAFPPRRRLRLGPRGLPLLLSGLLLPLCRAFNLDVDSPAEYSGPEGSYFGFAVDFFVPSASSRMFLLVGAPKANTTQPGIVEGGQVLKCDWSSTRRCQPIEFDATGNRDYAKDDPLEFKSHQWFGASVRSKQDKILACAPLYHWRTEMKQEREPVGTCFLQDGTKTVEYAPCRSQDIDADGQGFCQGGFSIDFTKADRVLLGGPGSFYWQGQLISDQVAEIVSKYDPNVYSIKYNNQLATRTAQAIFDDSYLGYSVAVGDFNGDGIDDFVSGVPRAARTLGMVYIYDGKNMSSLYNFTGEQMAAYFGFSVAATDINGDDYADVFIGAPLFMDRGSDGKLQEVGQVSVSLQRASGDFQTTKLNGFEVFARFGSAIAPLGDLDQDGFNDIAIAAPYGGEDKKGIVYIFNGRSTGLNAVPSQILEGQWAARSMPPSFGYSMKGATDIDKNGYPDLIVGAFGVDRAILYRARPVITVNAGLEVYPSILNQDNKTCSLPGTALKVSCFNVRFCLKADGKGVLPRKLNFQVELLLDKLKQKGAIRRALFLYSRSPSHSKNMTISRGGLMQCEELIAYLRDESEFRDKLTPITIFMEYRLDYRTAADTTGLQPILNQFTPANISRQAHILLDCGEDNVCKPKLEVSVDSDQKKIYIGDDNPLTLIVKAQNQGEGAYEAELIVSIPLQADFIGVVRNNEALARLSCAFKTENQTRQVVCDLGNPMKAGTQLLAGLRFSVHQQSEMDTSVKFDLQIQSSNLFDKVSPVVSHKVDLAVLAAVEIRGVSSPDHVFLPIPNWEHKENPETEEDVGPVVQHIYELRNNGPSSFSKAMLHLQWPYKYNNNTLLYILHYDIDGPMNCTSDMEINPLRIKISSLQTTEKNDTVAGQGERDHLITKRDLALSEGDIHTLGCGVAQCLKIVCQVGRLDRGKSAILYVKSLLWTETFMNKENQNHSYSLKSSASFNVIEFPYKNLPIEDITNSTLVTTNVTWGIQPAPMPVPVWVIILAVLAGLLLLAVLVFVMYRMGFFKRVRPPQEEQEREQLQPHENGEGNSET
UniProt P18084: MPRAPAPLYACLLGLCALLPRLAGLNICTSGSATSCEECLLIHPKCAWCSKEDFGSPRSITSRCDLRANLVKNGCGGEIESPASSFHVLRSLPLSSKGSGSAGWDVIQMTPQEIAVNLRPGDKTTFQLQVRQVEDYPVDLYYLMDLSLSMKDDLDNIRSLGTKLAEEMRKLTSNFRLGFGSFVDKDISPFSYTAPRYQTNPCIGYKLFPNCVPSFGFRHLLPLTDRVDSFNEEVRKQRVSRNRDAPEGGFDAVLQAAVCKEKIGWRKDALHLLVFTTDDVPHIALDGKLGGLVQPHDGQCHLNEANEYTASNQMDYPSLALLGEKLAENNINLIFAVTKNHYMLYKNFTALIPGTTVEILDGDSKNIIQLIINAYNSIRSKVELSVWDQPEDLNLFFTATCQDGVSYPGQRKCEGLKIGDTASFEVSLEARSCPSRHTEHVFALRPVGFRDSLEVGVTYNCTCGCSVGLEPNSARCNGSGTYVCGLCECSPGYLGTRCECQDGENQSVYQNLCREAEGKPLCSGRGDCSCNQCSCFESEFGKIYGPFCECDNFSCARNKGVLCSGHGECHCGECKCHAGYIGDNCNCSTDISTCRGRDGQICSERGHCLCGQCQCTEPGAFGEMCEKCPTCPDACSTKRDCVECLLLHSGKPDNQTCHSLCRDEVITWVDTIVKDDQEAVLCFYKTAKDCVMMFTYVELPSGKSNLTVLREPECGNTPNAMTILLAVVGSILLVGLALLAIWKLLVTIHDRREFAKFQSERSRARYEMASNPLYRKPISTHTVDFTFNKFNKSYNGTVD
UniProt P14780: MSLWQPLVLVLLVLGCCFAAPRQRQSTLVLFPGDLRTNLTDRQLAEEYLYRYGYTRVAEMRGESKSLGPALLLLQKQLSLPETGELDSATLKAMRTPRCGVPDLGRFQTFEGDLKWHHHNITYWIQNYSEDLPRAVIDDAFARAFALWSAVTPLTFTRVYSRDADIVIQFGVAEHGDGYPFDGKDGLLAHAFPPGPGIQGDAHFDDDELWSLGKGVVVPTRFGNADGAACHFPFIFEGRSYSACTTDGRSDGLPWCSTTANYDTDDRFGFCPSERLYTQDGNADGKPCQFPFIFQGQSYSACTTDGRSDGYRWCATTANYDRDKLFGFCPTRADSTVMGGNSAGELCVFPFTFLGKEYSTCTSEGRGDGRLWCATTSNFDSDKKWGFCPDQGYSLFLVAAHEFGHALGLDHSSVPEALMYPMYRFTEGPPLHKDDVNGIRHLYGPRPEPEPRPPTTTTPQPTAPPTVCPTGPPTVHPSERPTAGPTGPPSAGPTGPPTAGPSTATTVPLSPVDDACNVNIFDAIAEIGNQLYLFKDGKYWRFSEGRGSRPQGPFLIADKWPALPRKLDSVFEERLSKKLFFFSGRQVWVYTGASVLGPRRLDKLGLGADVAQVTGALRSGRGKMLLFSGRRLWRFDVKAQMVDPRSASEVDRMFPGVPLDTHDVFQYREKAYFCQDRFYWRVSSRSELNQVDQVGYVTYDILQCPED

No constants are given. Whether binding was seen depends on the method and setting. For some of these results: Binding seen in cells or lysates may run through a third protein. Some binding calls cover weakened binding; strength is not graded here.

For the substance “MMP-9 collagen binding domain (CBD), amino acids Gly204-Gly373 (from UniProt P14780 223-392)”, the binding entry in test [1] and in test [2] was “binds” in each case.
Turning to “pro-MMP-9 (purified human pro-matrix metalloproteinase-9) (from UniProt P14780 20-707) (enzyme)”, the binding entry in test [3] and in test [4] was “binds” in each case.

The record behind these values is patent publication US20070207967A1, “Peptide Inhibitors of Matrix Metalloproteinase Activity” (CTT CANCER TARGETING TECHNOLOGIES OY, priority 2004, published 2007).
